Measurements taken from US20040142894, “Modulation of cellular proliferation” (published 2004).
Results from cells or extracts need not show a direct contact. For some assays here: No signal at the amounts used counts as a negative. Protein sequences can lack the tags named with them.

Columns and labels:
[1] = biological target: T1, HiNF-P (endogenous, HeLa nuclear extract) (Homo sapiens) (UniProt Q9BQA5); test: competition with a labelled probe; conditions: excess cold mutant does not compete; protein in an extract; variant of Site II minimal HiNF-P binding oligo
T1 sequence (looked up, limits assumed): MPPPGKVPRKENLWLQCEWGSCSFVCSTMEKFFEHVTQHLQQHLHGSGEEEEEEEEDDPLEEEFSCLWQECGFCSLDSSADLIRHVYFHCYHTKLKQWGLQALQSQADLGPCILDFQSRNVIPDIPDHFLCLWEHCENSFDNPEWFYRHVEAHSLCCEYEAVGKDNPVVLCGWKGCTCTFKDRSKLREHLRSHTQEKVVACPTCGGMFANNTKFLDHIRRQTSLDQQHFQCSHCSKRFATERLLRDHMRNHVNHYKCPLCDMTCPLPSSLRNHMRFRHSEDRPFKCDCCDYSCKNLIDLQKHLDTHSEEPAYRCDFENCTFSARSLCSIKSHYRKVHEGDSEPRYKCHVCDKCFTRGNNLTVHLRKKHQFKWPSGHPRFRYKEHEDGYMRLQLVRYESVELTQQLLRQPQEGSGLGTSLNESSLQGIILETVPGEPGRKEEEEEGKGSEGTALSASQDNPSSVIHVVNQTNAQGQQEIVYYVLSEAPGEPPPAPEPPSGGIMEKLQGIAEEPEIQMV

[2] = biological target: T1, HiNF-P (endogenous, HeLa nuclear extract) (Homo sapiens); test: EMSA; conditions: Zn2+ and Mg2+ 0.2 mM, room temperature; complex blocked by HiNF-P antisera; protein in an extract; label: 32P

Sequence | binding result [1] | binding result [2]
GATCCTTCGGTTTTCAATCTTCTACGAT (double strand) [Site II mutant H4-Pmut] | no binding | 
GATCCTTCGGTTTTCAATCTGGTCCGAT (double strand) [Site II minimal HiNF-P binding oligo] |  | binds
